# Test results from the supplement of paper PMC8728848.
# The list shows a part of the results.
# B1: RbmA (Vibrio cholerae), A0A2H4NFB8 (protein)
# chain: MSNFKGSIMNKRHYYLASCLALLFSTASYAEVDCELQPVIEANLSLNQNQLASNGGYISSQLGIRNESCETVKFKYWLSIKGPEGIYFPAKAVVGVDTAQQESDALTDGRMLNVTRGFWVPEYMADGKYTVSLQVVAENGEVFKANQEFVKGGDLNSLPELNGLTIDIKNQFGINSVESTGGFVPFTIDLNNGREGEAKVEFWMTAVGPDGLIIPVHSREKWMIIAGNTFSKVRGINFDKSYPAGEYTINAQVVDIVSGERVEQLMTVVKK
# How the values were obtained:
# Assay in all cases: glycan array binding signal (z-score within array); higher = stronger binding
# Details in all cases: glycan notation: IUPAC condensed, linker removed
# [1] = biological target: Fuc(a1-2)Gal(b1-4)GlcNAc(b1-3)Gal(b1-4)GlcNAc(b1-2)Man(a1-3)[Fuc(a1-2)Gal(b1-4)GlcNAc(b1-3)Gal(b1-4)GlcNAc(b1-2)Man(a1-6)]Man(b1-4)GlcNAc(b1-4)GlcNAc
# Procedure, shortened: (§1)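 Glycan array data were curated from 3228 arrays in the Consortium for Functional Glycomics database and kept only where the protein sequence was available. Glycan names were converted to IUPAC-condensed notation, and columns mapping to the same glycan were averaged. The binding signal is a within-array Z-score, averaged across arrays of the same protein sequence at different concentrations or buffers and across linkers. Negative Z-scores can be read as non-binding.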
# [2] = biological target: Fuc(a1-2)Gal(b1-4)GlcNAc(b1-3)Gal(b1-4)GlcNAc(b1-3)Gal(b1-4)GlcNAc
# Procedure, shortened: as §1
# [3] = biological target: Fuc(a1-2)Gal(b1-4)GlcNAc(b1-3)GalNAc
# Procedure, shortened: as §1
# [4] = biological target: Fuc(a1-2)Gal(b1-4)GlcNAc(b1-3)[Fuc(a1-2)Gal(b1-4)GlcNAc(b1-6)]GalNAc
# Procedure, shortened: as §1
# [5] = biological target: Fuc(a1-2)Gal(b1-4)GlcNAc(b1-3)[Fuc(a1-3)[Gal(b1-4)]GlcNAc(b1-6)]Gal(b1-4)Glc
# Procedure, shortened: as §1
# [6] = biological target: Fuc(a1-2)Gal(b1-4)GlcNAc(b1-6)GalNAc
# Procedure, shortened: as §1
# [7] = biological target: Fuc(a1-2)Gal(b1-4)GlcNAc6S
# Procedure, shortened: as §1
# [8] = biological target: Fuc(a1-2)Gal(b1-4)[Fuc(a1-3)]GlcNAc
# Procedure, shortened: as §1
# [9] = biological target: Fuc(a1-2)Gal(b1-4)[Fuc(a1-3)]GlcNAc(b1-2)Man(a1-3)[Fuc(a1-2)Gal(b1-4)[Fuc(a1-3)]GlcNAc(b1-2)Man(a1-6)]Man(b1-4)GlcNAc(b1-4)[Fuc(a1-6)]GlcNAc
# Procedure, shortened: as §1
# [10] = biological target: Fuc(a1-2)Gal(b1-4)[Fuc(a1-3)]GlcNAc(b1-2)[Fuc(a1-2)Gal(b1-4)[Fuc(a1-3)]GlcNAc(b1-4)]Man(a1-3)[Fuc(a1-2)Gal(b1-4)[Fuc(a1-3)]GlcNAc(b1-2)Man(a1-6)]Man(b1-4)GlcNAc(b1-4)GlcNAc
# Procedure, shortened: as §1
# [11] = biological target: Fuc(a1-2)Gal(b1-4)[Fuc(a1-3)]GlcNAc(b1-3)Gal(b1-4)[Fuc(a1-3)]GlcNAc
# Procedure, shortened: as §1
# [12] = biological target: Fuc(a1-2)Gal(b1-4)[Fuc(a1-3)]GlcNAc(b1-3)Gal(b1-4)[Fuc(a1-3)]GlcNAc(b1-3)Gal(b1-4)[Fuc(a1-3)]GlcNAc
# Procedure, shortened: as §1
# [13] = biological target: Fuc(a1-2)Gal(b1-4)[Fuc(a1-3)]GlcNAc(b1-3)GalNAc
# Procedure, shortened: as §1
# [14] = biological target: Fuc(a1-2)Gal(b1-4)[Fuc(a1-3)]GlcNAc(b1-3)[Neu5Ac(a2-6)Gal(b1-4)GlcNAc(b1-6)]Gal(b1-4)Glc
# Procedure, shortened: as §1
# [15] = biological target: Fuc(a1-2)Gal6S(b1-3)GlcNAc
# Procedure, shortened: as §1
# [16] = biological target: Fuc(a1-2)Gal6S(b1-3)GlcNAc6S
# Procedure, shortened: as §1
# Fuc(a1-2)Gal6S(b1-4)Glc = biological target: Fuc(a1-2)Gal6S(b1-4)Glc
# Procedure, shortened: as §1
# [17] = biological target: Fuc(a1-2)Gal6S(b1-4)Glc6S
# Procedure, shortened: as §1
# [18] = biological target: Fuc(a1-2)Gal6S(b1-4)GlcNAc
# Procedure, shortened: as §1
# Fuc(a1-2)[Gal(a1-3)]Gal = biological target: Fuc(a1-2)[Gal(a1-3)]Gal
# Procedure, shortened: as §1
# [19] = biological target: Fuc(a1-2)[Gal(a1-3)]Gal(b1-3)GalNAc
# Procedure, shortened: as §1
# [20] = biological target: Fuc(a1-2)[Gal(a1-3)]Gal(b1-3)GalNAc(b1-3)Gal(a1-4)Gal(b1-4)Glc
# Procedure, shortened: as §1
# [21] = biological target: Fuc(a1-2)[Gal(a1-3)]Gal(b1-3)GlcNAc
# Procedure, shortened: as §1
# [22] = biological target: Fuc(a1-2)[Gal(a1-3)]Gal(b1-3)GlcNAc(b1-2)Man(a1-3)[Fuc(a1-2)[Gal(a1-3)]Gal(b1-3)GlcNAc(b1-2)Man(a1-6)]Man(b1-4)GlcNAc(b1-4)GlcNAc
# Procedure, shortened: as §1
# [23] = biological target: Fuc(a1-2)[Gal(a1-3)]Gal(b1-3)GlcNAc(b1-2)Man(a1-3)[Fuc(a1-2)[Gal(a1-3)]Gal(b1-3)GlcNAc(b1-2)Man(a1-6)]Man(b1-4)GlcNAc(b1-4)[Fuc(a1-6)]GlcNAc
# Procedure, shortened: as §1
# [24] = biological target: Fuc(a1-2)[Gal(a1-3)]Gal(b1-3)GlcNAc(b1-3)GalNAc
# Procedure, shortened: as §1
# [25] = biological target: Fuc(a1-2)[Gal(a1-3)]Gal(b1-3)GlcNAc(b1-6)GalNAc
# Procedure, shortened: as §1
# [26] = biological target: Fuc(a1-2)[Gal(a1-3)]Gal(b1-4)Glc
# Procedure, shortened: as §1
# [27] = biological target: Fuc(a1-2)[Gal(a1-3)]Gal(b1-4)GlcNAc
# Procedure, shortened: as §1
# [28] = biological target: Fuc(a1-2)[Gal(a1-3)]Gal(b1-4)GlcNAc(b1-2)Man
# Procedure, shortened: as §1
# [29] = biological target: Fuc(a1-2)[Gal(a1-3)]Gal(b1-4)GlcNAc(b1-2)Man(a1-3)[Fuc(a1-2)[Gal(a1-3)]Gal(b1-4)GlcNAc(b1-2)Man(a1-6)]Man(b1-4)GlcNAc(b1-4)GlcNAc
# Procedure, shortened: as §1
# [30] = biological target: Fuc(a1-2)[Gal(a1-3)]Gal(b1-4)GlcNAc(b1-2)Man(a1-3)[Fuc(a1-2)[Gal(a1-3)]Gal(b1-4)GlcNAc(b1-2)Man(a1-6)]Man(b1-4)GlcNAc(b1-4)[Fuc(a1-6)]GlcNAc
# Procedure, shortened: as §1
# [31] = biological target: Fuc(a1-2)[Gal(a1-3)]Gal(b1-4)GlcNAc(b1-3)GalNAc
# Procedure, shortened: as §1
# [32] = biological target: Fuc(a1-2)[Gal(a1-3)]Gal(b1-4)GlcNAc(b1-6)GalNAc
# Procedure, shortened: as §1
# [33] = biological target: Fuc(a1-2)[Gal(a1-3)]Gal(b1-4)[Fuc(a1-3)]Glc
# Procedure, shortened: as §1
# [34] = biological target: Fuc(a1-2)[Gal(a1-3)]Gal(b1-4)[Fuc(a1-3)]GlcNAc
# Procedure, shortened: as §1
# [35] = biological target: Fuc(a1-2)[Gal(a1-3)]Gal(b1-4)[Fuc(a1-3)]GlcNAc(b1-3)GalNAc
# Procedure, shortened: as §1
binder,measurement,setting,value
B1,glycan array binding signal (z-score),[1],1.1
same,glycan array binding signal (z-score),[2],-0.524
same,glycan array binding signal (z-score),[3],0.523
same,glycan array binding signal (z-score),[4],0.169
same,glycan array binding signal (z-score),[5],-1.04
same,glycan array binding signal (z-score),[6],0.02
same,glycan array binding signal (z-score),[7],-0.371
same,glycan array binding signal (z-score),[8],-1.15
same,glycan array binding signal (z-score),[9],-0.252
same,glycan array binding signal (z-score),[10],1.06
same,glycan array binding signal (z-score),[11],-1.17
same,glycan array binding signal (z-score),[12],-0.125
same,glycan array binding signal (z-score),[13],1.05
same,glycan array binding signal (z-score),[14],2.62
same,glycan array binding signal (z-score),[15],-1.11
same,glycan array binding signal (z-score),[16],1.54
same,glycan array binding signal (z-score),Fuc(a1-2)Gal6S(b1-4)Glc,-0.179
same,glycan array binding signal (z-score),[17],1.18
same,glycan array binding signal (z-score),[18],-0.22
same,glycan array binding signal (z-score),Fuc(a1-2)[Gal(a1-3)]Gal,-0.705
same,glycan array binding signal (z-score),[19],-0.446
same,glycan array binding signal (z-score),[20],0.168
same,glycan array binding signal (z-score),[21],1.13
same,glycan array binding signal (z-score),[22],-1.34
same,glycan array binding signal (z-score),[23],-0.144
same,glycan array binding signal (z-score),[24],0.632
same,glycan array binding signal (z-score),[25],-0.084
same,glycan array binding signal (z-score),[26],0.471
same,glycan array binding signal (z-score),[27],-0.42
same,glycan array binding signal (z-score),[28],-0.762
same,glycan array binding signal (z-score),[29],-0.767
same,glycan array binding signal (z-score),[30],-0.172
same,glycan array binding signal (z-score),[31],-0.562
same,glycan array binding signal (z-score),[32],-0.877
same,glycan array binding signal (z-score),[33],-0.11
same,glycan array binding signal (z-score),[34],0.204
same,glycan array binding signal (z-score),[35],-0.943

# Part of the list above, reformatted.
binder	measurement	setting	value
B1	glycan array binding signal (z-score)	[20]	0.168
same	glycan array binding signal (z-score)	[25]	-0.084
same	glycan array binding signal (z-score)	[29]	-0.767
